The test system of this assay is GABAA receptor. In words: [^3H]muscimol competition binding, rat brain synaptic membranes. Particulars: 1 mM cold GABA. As for the experimental part: GABAA and GABAB binding assays were performed using rat brain synaptic membranes of cortex and the central hemispheres from adult male Sprague-Dawley rats with tissue preparation as earlier described (Ransom, R. W.; Stec, N. L. Cooperative modulation of [^3H]MK-801 binding to the N-methyl-D-aspartate receptor-ion channel complex by L-glutamate, glycine, and polyamines. J. Neurochem. 1988, 51, 830-836). On the day of the assay, the membrane preparation was quickly thawed, suspended in 40 volumes of ice-cold 50 mM Tris-HCl buffer (pH 7.4) using an UltraTurrax homogenizer and centrifuged at 48,000 g for 10 min at 4° C. This washing step was repeated four times. The final pellet was resuspended in incubation buffer and the binding assay carried out as detailed below.
Rat brain synaptic membranes (100 μg protein/aliquot) prepared above in Tris-HCl buffer (50 mM, pH 7.4) were incubated with [^3H]muscimol (5 nM) and 100 μM of compound 2 at 0° C. for 60 min in a total volume of 250 μl.

The values that follow come from patent publication US9254274B2, “Method of treating Tourette'S disorder with GABA-aminotransferase inactivators” (CATALYST PHARMACEUTICAL PARTNERS, priority 2012, dated 2016).

Turning to `NCCCC(=O)O` [GABA, gamma aminobutyric acid], the “inhibition of radioligand binding at GABAA receptors” value is “inhibited radioligand binding as expected”.
